Results are given in words; binding and its absence hold for the method and conditions named. Binding seen in cells or lysates may run through a third protein. Some binding calls cover weakened binding; strength is not graded here.
Columns and labels:
Assay in all cases: co-IP; HA-tagged ERK3 proteins immunoprecipitated from lysates of transfected HeLa cells with anti-HA agarose beads; Western blotting for CRM1 and MK5; input 2%
HA-tagged ERK3 L290V = HA-tagged ERK3 L290V (UniProt Q16659)
HA-tagged ERK3 L290P = HA-tagged ERK3 L290P (UniProt Q16659)
HA-tagged wild type ERK3 = HA-tagged wild type ERK3 (UniProt Q16659)

Chains of the proteins cited; added tags and fusions are not shown. Lines headed by an entry give the natural chain unless they say otherwise; changes in a name come on top.
UniProt Q16659: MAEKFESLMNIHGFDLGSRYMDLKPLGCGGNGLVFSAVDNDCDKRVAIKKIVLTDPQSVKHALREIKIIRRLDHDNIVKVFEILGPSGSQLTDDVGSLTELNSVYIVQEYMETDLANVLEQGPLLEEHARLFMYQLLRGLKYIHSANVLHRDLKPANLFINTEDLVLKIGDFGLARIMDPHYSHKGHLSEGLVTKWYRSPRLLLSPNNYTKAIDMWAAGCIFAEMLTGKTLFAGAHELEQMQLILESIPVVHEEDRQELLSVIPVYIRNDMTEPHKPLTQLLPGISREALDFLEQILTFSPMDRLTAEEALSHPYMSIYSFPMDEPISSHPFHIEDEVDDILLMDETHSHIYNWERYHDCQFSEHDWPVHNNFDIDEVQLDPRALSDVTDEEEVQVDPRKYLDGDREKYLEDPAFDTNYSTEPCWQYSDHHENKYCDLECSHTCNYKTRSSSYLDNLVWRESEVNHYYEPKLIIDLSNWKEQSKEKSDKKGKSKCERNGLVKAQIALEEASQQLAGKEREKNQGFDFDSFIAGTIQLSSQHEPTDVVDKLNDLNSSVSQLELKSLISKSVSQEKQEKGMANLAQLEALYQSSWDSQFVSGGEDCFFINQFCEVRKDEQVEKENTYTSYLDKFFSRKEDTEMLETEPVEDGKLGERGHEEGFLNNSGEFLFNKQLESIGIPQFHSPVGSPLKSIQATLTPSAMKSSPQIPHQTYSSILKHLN
UniProt Q8IW41: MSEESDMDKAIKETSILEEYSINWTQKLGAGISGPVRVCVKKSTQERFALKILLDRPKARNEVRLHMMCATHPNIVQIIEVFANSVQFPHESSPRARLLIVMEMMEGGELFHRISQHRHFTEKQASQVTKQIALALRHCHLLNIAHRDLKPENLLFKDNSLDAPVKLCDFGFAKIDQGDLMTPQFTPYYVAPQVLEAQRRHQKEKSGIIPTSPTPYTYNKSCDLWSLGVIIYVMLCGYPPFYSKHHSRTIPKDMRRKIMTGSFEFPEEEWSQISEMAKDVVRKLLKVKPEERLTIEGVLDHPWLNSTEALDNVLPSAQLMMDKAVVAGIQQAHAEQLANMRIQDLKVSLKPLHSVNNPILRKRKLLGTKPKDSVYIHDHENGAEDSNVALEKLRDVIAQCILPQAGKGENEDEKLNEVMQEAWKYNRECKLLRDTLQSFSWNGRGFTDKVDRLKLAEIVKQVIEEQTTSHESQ
UniProt O14980: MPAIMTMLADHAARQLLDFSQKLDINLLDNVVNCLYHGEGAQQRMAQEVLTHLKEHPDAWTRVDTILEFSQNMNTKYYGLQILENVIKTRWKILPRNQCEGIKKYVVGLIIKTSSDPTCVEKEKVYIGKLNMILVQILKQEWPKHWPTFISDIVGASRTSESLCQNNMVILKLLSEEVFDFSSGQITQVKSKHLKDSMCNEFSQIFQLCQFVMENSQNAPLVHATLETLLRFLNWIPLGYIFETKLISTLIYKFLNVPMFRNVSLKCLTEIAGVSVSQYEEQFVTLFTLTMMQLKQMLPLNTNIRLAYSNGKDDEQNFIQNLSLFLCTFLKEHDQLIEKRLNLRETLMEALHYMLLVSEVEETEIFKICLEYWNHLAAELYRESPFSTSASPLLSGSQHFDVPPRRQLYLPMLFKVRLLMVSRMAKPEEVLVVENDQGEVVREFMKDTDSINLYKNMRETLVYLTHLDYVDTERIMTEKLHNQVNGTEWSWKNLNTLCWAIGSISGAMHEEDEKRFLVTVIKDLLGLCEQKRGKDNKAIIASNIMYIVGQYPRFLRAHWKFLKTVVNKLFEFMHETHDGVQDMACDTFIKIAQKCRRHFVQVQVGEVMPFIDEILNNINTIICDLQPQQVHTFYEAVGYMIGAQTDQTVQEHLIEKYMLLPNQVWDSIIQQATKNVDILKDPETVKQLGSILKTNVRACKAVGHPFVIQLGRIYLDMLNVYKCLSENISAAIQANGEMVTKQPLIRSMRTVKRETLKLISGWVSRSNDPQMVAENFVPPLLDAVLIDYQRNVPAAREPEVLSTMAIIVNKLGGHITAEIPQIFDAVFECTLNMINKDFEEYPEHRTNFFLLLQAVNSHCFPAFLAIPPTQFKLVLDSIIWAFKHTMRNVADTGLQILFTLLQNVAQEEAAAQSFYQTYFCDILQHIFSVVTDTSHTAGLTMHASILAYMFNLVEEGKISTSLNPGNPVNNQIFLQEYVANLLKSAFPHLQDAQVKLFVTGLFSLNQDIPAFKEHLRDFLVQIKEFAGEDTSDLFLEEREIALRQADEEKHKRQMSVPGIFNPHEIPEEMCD

| binding (HA-tagged ERK3 L290V) | binding (HA-tagged ERK3 L290P) | binding (HA-tagged wild type ERK3) | Substance |
| --- | --- | --- | --- |
| binds | binds | binds | MAPK-activated protein kinase-5 (MK5) (from UniProt Q8IW41 1-473) |
| binds | binds | binds | chromosomal maintenance 1 (CRM1) (from UniProt O14980 1-1071) |

— publication PMC5670241
